± gives the standard deviation. Some of the results follow. Many of these values have a large error. Bounds are passed on as bounds.

The subject of this test is EfPiwi piRISC loaded with L1MC piRNA (26 nt). The test can be described thus: pre-steady-state target cleavage rate (min^-1); guide: L1MC piRNA 5'p-UAACUAAAUACUAUGCAAGCUGUAGG; MIWI and MILI are mouse PIWI proteins and EfPiwi is from a freshwater sponge; tags in brackets are library labels; higher = faster piRNA-guided slicing of the target. In short, it runs like this: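 In Cleave-'n-Seq, a transcribed, DNA-blocked target RNA library (0.1 nM) was combined with 1 nM active affinity-purified piRISC bearing one synthetic guide, with or without 500 nM GTSF1 partner protein. Reactions ran in HEPES–potassium acetate buffer at 33 °C for 0–8 or 0–960 min. Uncleaved targets were sequenced and normalised to depth and to weakly complementary targets, three trials were pooled, and k3 was capped at 0.0001 min^-1. The pre-steady-state cleavage rate was obtained by fitting a burst-and-steady-state model.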

Setting [1] is: auxiliary factor: 500 nM Ephydatia muelleri Gtsf1.
Setting [2] is: auxiliary factor: none (no Gtsf1).

Consider UCCUCCUACAGCUUGCAUAGUAUUUAGAAA, for which the “pre-steady-state target cleavage rate” value under setting [1] came out at 0.00581 ± 0.0024 and the “pre-steady-state target cleavage rate” value under setting [2] worked out at 0.000846 ± 0.0079.
With UCCUCCUACAGCUUGCAUACUAUUUAGUUA, the “pre-steady-state target cleavage rate” value reads like this: under setting [1], 0.00904 ± 0.0032; under setting [2], 0.00124 ± 0.0066.
Turning to UCCUCCUACAGCUUGCAUACUAAUUAGUUA, the “pre-steady-state target cleavage rate” value runs as follows: under setting [1], 0.00358 ± 0.0017; under setting [2], 0.000959 ± 0.0057.
In the case of UCCUGCUACAGGUUGCAUACUAUUUAGUUA, the “pre-steady-state target cleavage rate” value runs as follows: under setting [1], 0.00621 ± 0.0019; under setting [2], 0.000766 ± 0.01.
On to “UCCUGGAUGUCGAACGUUAGUAUUUAGUUU [g2:g13:cont:t1U]”, for which the “pre-steady-state target cleavage rate” value under setting [1] came to 0.000157 ± 0.026 and the “pre-steady-state target cleavage rate” value under setting [2] was below 0.0001.
For UCCUGGAUGUGCUAGCAUAGUAUUUUGUUA the same measures were 0.000785 ± 0.0043 and 0.000842 ± 0.012.
For the sequence UCCUGGAUGAGCUUGCAUAGUAUUUAGGUUA, the “pre-steady-state target cleavage rate” value is, setting by setting: under setting [1], 0.0031 ± 0.002; under setting [2], 0.000395 ± 0.012.
UCCUGGAUGUGCUUGAAUAGUAUUUAGUUA: the “pre-steady-state target cleavage rate” value runs as follows: under setting [1], 0.00214 ± 0.0034; under setting [2], 0.000837 ± 0.013.
Take UCCUGGAUGUGCUUGGAUAGUAUUUAGAUA: the “pre-steady-state target cleavage rate” value was 0.000698 ± 0.0045 under setting [1] and 0.000671 ± 0.017 under setting [2].
Regarding UCCUGCUACAGCUUGCAUUGUAUUUUGUUA, the “pre-steady-state target cleavage rate” value came out at 0.00346 ± 0.0021 under setting [1] and 0.00081 ± 0.0082 under setting [2].
Consider UCCUGGAUGUGCUUGCUUAGUAAUUAGUUA, for which the “pre-steady-state target cleavage rate” value came out at 0.00256 ± 0.0041 under setting [1] and 0.000358 ± 0.036 under setting [2].
The matching figures for UCCUGGUACAGCUUGCAUAUAUUUAGUUA: 0.0015 ± 0.0039 and 0.00103 ± 0.011.
For UCCUGGAUGUCGAUGCAUAGUAUCUUAGUUA the same measures were 0.00105 ± 0.0061 and 0.000679 ± 0.012.
For UCCUGCUACAGCUUGCAUAGUACUUUAGUUA, the “pre-steady-state target cleavage rate” value reads like this: under setting [1], 0.00465 ± 0.0015; under setting [2], 0.000377 ± 0.015.
On to UCCUGGAACAGCUUGCAUAGUAUUUAGGUUA, for which the “pre-steady-state target cleavage rate” value was determined as 0.00305 ± 0.0027 under setting [1] and 0.000848 ± 0.013 under setting [2].
Turning to UCCUGGUACUGCUUGCAUAGUAUUUUGUUA, the “pre-steady-state target cleavage rate” value is, setting by setting: under setting [1], 0.00243 ± 0.0031; under setting [2], 0.000175 ± 0.081.
The matching figures for UCCUGGAUGUCCUAGCAUAGUAUAUAGUUA: 0.000458 ± 0.0074 and 0.000342 ± 0.021.
As to UCCUGGUACAGCUUGCAUAGUAGUUUAGUUA, the “pre-steady-state target cleavage rate” value came to 0.0074 ± 0.0029 under setting [1] and 0.00189 ± 0.007 under setting [2].
As to UCCUGGAUGAGCUUGCAUAGUUUUUAGAUA, the “pre-steady-state target cleavage rate” value under setting [1] is 0.00154 ± 0.0037 and the “pre-steady-state target cleavage rate” value under setting [2] is below 0.0001.
Turning to UCCUGCUACAGCUUGCAUAGUAUUUAGGUUA, the “pre-steady-state target cleavage rate” value under setting [1] was 0.00526 ± 0.0014 and the “pre-steady-state target cleavage rate” value under setting [2] is 0.000319 ± 0.019.
For UCCUGGAACACCUUGCAUAGUAAUUAGUUA the same measures were 0.00283 ± 0.0022 and 0.000846 ± 0.0099.
Take UCCUGGAACAGCUUGCAUAGUAUAUAGUUA: the “pre-steady-state target cleavage rate” value came to 0.00501 ± 0.0025 under setting [1] and 0.00111 ± 0.0095 under setting [2].
The matching figures for UCCUCCUACACCUUGCAUAGUUUUUAGUUA: 0.00443 ± 0.002 and 0.000468 ± 0.013.
Regarding UCCUGCUACAGCUUGCAUAGUAUAAUGUUA, the “pre-steady-state target cleavage rate” value was 0.00304 ± 0.002 under setting [1] and 0.000253 ± 0.029 under setting [2].
In the case of UCCUGGAUGUCGAACCAUGAGUAUUUAGUUA, the “pre-steady-state target cleavage rate” value runs as follows: under setting [1], 0.000404 ± 0.012; under setting [2], 0.000467 ± 0.013.
On to UCCUGGAUCAGCUAGCAUACUAUUUAGUUA, for which the “pre-steady-state target cleavage rate” value by setting is: under setting [1], 0.00342 ± 0.0018; under setting [2], 0.000499 ± 0.015.
UCCUGGAACAGCAUGCAUAGUAUUUAGUAA: the “pre-steady-state target cleavage rate” value is, setting by setting: under setting [1], 0.00384 ± 0.0023; under setting [2], 0.000233 ± 0.032.
Regarding UCCUGCUACACCUAGCAUAGUAUUUAGUUA, the “pre-steady-state target cleavage rate” value by setting is: under setting [1], 0.0171 ± 0.0054; under setting [2], 0.000844 ± 0.0079.
For UCCUGGAUGAGCUUGCAUACUAUUUAGUUA the same measures were 0.00682 ± 0.0019 and 0.00156 ± 0.0061.
Regarding UCCUGGAUCAGCUUGCAUAGUAUCUUAGUUA, the “pre-steady-state target cleavage rate” value reads like this: under setting [1], 0.0248 ± 0.0072; under setting [2], 0.0132 ± 0.0071.
With UCCUGGAACAGCUUGCAUAGUAUUUAGGUA, the “pre-steady-state target cleavage rate” value was found to be 0.00203 ± 0.0035 under setting [1] and 0.000763 ± 0.012 under setting [2].
For UCCUGCAACAGCUUGCAUACUAUUUAGUUA the same measures were 0.0112 ± 0.0029 and 0.0011 ± 0.0065.
Consider UCCUGGAUGAGCUUGGAUAGUAUUUAGUUA, for which the “pre-steady-state target cleavage rate” value runs as follows: under setting [1], 0.0043 ± 0.0033; under setting [2], 0.000886 ± 0.012.
As for UCCUGCUACAGCUUGCACAGUAUUUAGUUA, the “pre-steady-state target cleavage rate” value came out at 0.0133 ± 0.0041 under setting [1] and 0.000625 ± 0.0089 under setting [2].
As to UCCUGGAUGUGCUUGCAUUGUAUAUAGUUA, the “pre-steady-state target cleavage rate” value under setting [1] was found to be 0.000418 ± 0.0081 and the “pre-steady-state target cleavage rate” value under setting [2] is 0.000377 ± 0.019.
UCCUCCUACAGCAUGCAUAGUAUUUACUUA: the “pre-steady-state target cleavage rate” value under setting [1] was found to be 0.00211 ± 0.0017 and the “pre-steady-state target cleavage rate” value under setting [2] was found to be 0.00026 ± 0.017.
Regarding UCCUGGAUCAGCUUGCAUAGUAGUUAGUUA, the “pre-steady-state target cleavage rate” value under setting [1] turned out to be 0.0207 ± 0.0049 and the “pre-steady-state target cleavage rate” value under setting [2] was determined as 0.0324 ± 0.012.
With UCCUGGAUCACCUUGCAUACUAUUUAGUUA, the “pre-steady-state target cleavage rate” value was found to be 0.00341 ± 0.0028 under setting [1] and 0.000475 ± 0.013 under setting [2].
For the sequence UCCUGGAUGUCGAUCCAUAGUAUUUACUUA, the “pre-steady-state target cleavage rate” value by setting is: under setting [1], 0.000446 ± 0.013; under setting [2], below 0.0001.
Regarding UCCUGGAACAGCUUGCAUACUAUUUAGUUA, the “pre-steady-state target cleavage rate” value is, setting by setting: under setting [1], 0.00571 ± 0.0014; under setting [2], 0.00116 ± 0.0068.
Turning to UCCUGCUACAGCUUGCAUUGAAUUUAGUUA, the “pre-steady-state target cleavage rate” value under setting [1] was found to be 0.000552 ± 0.0067 and the “pre-steady-state target cleavage rate” value under setting [2] worked out at 0.00023 ± 0.023.
The matching figures for UCCUGGAUGUGCUUGCAUAGGAUUUAGUUA: 0.000624 ± 0.0053 and 0.000507 ± 0.019.
Take UCCUGGAUGAGCUUGCAAUGUAUUUAGUUA: the “pre-steady-state target cleavage rate” value is, setting by setting: under setting [1], 0.00266 ± 0.0045; under setting [2], 0.000709 ± 0.016.
With UCCUCCUACAGCUUGCAUAGUAUUUACUUA, the “pre-steady-state target cleavage rate” value came out at 0.0042 ± 0.0034 under setting [1] and 0.000575 ± 0.0089 under setting [2].
On to UCCUGGAUGAGCUUGCUUACUAUUUAGUUA, for which the “pre-steady-state target cleavage rate” value reads like this: under setting [1], 0.00203 ± 0.0022; under setting [2], 0.00049 ± 0.015.
For UCCUGGAACAGCUUGCAUAGUAUUUUAGUUA the same measures were 0.0192 ± 0.0054 and 0.000493 ± 0.033.
With UCCUGGAUCAGCUUGCAUAGUAUUUAAGUUA, the “pre-steady-state target cleavage rate” value reads like this: under setting [1], 0.00608 ± 0.0023; under setting [2], 0.00215 ± 0.0073.
Regarding UCCUGGAUGUCGAACGUAAGUAUUCUAGUUA, the “pre-steady-state target cleavage rate” value under setting [1] turned out to be 0.000109 ± 0.023 and the “pre-steady-state target cleavage rate” value under setting [2] was 0.000429 ± 0.016.
The matching figures for UCCUGGAUCAGCUUGCAUAGUAUGUAGUUA: 0.0171 ± 0.0042 and 0.0179 ± 0.0092.
Take UCCUGGAACAGCUUGCUAUGUAUUUAGUUA: the “pre-steady-state target cleavage rate” value came to 0.00155 ± 0.0048 under setting [1] and 0.00124 ± 0.0064 under setting [2].
For the sequence UCCUGGUACAGCUUGCUUAGUAUUUAGUAA, the “pre-steady-state target cleavage rate” value under setting [1] was found to be 0.00376 ± 0.0023 and the “pre-steady-state target cleavage rate” value under setting [2] is 0.000726 ± 0.012.
Consider UCCUGGUACAGCUUGCAAAGUUUUUAGUUA, for which the “pre-steady-state target cleavage rate” value under setting [1] worked out at 0.00245 ± 0.0024 and the “pre-steady-state target cleavage rate” value under setting [2] was 0.000684 ± 0.0097.
For the sequence UCCUGGAUCAGCUUGUCAUAGUAUUUAGUUA, the “pre-steady-state target cleavage rate” value came out at 0.0196 ± 0.0046 under setting [1] and 0.000833 ± 0.013 under setting [2].
On to UCCUGGAUGUGCUUGCAAAGUAAUUAGUUA, for which the “pre-steady-state target cleavage rate” value reads like this: under setting [1], 0.00249 ± 0.0041; under setting [2], 0.000379 ± 0.023.
